{"source": "patent US20200171007A1", "about": "“Methods of Treating Hepatorenal Syndrome and Hepatic Encephalopathy with Thromboxane-A2 Receptor Antagonists” (Cumberland Pharmaceuticals Inc., priority 2010, published 2020)", "origin": "cited, not measured here", "test_system": "patients with hepatorenal syndrome", "conditions": "parenteral or oral; five studies", "note": "For at least one compound, name, drawing or mass did not settle the structure."}
{"compound": "CCCCC(C)(O)C/C=C/[C@H]1[C@H](O)CC(=O)[C@@H]1CCCCCCC(=O)OC", "note": "(mixture of isomers) [misoprostol]", "values": [{"measurement": "improvement in glomerular filtration rate, sodium excretion, or renal function", "result": "None of these studies demonstrated an improvement"}]}
